Experimental data taken from patent US20050064593A1.
No constants are given. Whether binding was seen depends on the method and setting. Some entries that bind do so weakly or less than the wild type.

Amino acid sequences for entries named in this document (tags omitted). A change or cut given only in a name is not applied to a line headed by its entry.
UniProt P97287: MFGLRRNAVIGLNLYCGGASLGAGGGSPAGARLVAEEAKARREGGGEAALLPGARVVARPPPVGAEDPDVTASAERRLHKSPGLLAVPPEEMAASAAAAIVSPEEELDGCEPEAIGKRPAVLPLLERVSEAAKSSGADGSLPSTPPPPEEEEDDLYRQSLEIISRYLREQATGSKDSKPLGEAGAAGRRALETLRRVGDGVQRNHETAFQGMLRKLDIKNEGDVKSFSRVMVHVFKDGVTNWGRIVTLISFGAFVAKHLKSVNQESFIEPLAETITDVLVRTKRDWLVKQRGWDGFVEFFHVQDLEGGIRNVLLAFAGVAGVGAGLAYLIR
UniProt Q91ZE9: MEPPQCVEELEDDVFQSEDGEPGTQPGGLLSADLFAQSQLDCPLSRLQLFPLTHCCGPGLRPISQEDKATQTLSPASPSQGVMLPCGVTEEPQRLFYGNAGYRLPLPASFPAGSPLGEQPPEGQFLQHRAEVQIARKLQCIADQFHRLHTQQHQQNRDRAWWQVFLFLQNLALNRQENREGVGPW

Biological target: Mcl-1 clones isolated from a mouse embryo cDNA library with Bmf as bait (mouse) (UniProt P97287)
Assay: yeast 2-hybrid screen

binding: binds
Substance: Bmf (Bcl-2 modifying factor), mouse, wild-type, as used in the yeast 2-hybrid system (from UniProt Q91ZE9 1-185)
